Measured values published in paper PMC3778944.

Sequences of proteins named here, by UniProt entry; tags and fusion partners are left off.
UniProt Q9NUW8, whole entry H493R: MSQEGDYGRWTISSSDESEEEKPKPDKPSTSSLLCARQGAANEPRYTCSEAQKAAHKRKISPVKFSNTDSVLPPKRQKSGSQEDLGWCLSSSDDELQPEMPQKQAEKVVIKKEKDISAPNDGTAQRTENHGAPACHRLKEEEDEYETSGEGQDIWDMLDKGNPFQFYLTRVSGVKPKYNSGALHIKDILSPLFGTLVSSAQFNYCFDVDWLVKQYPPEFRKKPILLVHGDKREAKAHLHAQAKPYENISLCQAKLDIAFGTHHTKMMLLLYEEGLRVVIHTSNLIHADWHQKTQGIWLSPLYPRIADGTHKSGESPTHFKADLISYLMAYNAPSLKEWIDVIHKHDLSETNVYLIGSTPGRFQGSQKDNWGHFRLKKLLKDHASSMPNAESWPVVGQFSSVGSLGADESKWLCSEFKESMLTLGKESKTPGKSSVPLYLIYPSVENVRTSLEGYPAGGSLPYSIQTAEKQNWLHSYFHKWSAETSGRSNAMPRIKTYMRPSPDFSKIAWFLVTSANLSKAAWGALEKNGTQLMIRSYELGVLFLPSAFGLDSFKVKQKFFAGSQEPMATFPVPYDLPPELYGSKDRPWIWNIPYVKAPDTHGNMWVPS
UniProt Q9NUW8, whole entry H263A: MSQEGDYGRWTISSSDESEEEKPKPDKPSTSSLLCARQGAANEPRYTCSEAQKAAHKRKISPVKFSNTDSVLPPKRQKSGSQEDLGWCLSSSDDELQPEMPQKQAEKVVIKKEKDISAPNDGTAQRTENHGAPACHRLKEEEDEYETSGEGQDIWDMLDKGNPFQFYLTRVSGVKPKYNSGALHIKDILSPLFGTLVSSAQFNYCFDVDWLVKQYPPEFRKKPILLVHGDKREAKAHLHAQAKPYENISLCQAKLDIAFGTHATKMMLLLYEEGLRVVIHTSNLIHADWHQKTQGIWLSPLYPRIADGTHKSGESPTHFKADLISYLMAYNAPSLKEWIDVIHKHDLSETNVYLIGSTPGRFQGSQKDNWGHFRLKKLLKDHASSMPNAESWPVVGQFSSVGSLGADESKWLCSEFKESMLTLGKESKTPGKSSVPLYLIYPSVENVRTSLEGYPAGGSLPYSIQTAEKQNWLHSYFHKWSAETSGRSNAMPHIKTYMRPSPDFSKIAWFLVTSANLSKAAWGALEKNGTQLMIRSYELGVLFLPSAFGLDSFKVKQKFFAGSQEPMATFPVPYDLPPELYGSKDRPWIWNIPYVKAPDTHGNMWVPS

Legend:
Tdp1 SCAN1 H493R (human) = Tdp1 SCAN1 H493R (human) (UniProt Q9NUW8); assay: EMSA; conditions: 1-10 nM, on ice, made by UDG, 50 mM Tris-HCl pH 7.5, 50 mM KCl, 10 nM 5'-32P DNA, UDG pretreatment (0.5 U/ul, 15 min, 37 C), complexes formed on ice, 5% native PAGE in TBE at 4 C, recombinant protein, protein details: Ni-chelating resin purification (His tag implied)
Tdp1 H263A (human) = Tdp1 H263A (human) (UniProt Q9NUW8); assay: EMSA; conditions: 1-10 nM, on ice, made by UDG, 50 mM Tris-HCl pH 7.5, 50 mM KCl, 10 nM 5'-32P DNA, UDG pretreatment (0.5 U/ul, 15 min, 37 C), complexes formed on ice, 5% native PAGE in TBE at 4 C, recombinant protein, protein details: Ni-chelating resin purification (His tag implied)
[1] = AP site at the U (position 25), label: 5'-32P, single-stranded DNA
[2] = AP site at the U of strand 1 (position 25), label: 5'-32P (strand 1)

Sequence	binding result (Tdp1 SCAN1 H493R (human); [1])	binding result (Tdp1 H263A (human); [1])	binding result (Tdp1 SCAN1 H493R (human); [2])	binding result (Tdp1 H263A (human); [2])
CTATGGCGAGGCGATTAAGTTGGGUACGTCAGGGTCTTCCGAACGAC [ssAP-DNA]	binds	binds	–	–
CTATGGCGAGGCGATTAAGTTGGGUACGTCAGGGTCTTCCGAACGAC / GTCGTTCGGAAGACCCTGACGTTGCCCAACTTAATCGCCTCGCCATAG [dsAP-DNA]	–	–	binds	binds

Construct, isoform or probe ends are uncertain for at least one entry. At least one verdict was read from the data and is not stated in words by the source.
